No constants are given. Whether binding was seen depends on the method and setting. A result given as binding can be weak or reduced; the word gives no strength.
What was measured:
Experiment in all cases: ELISA; modified sandwich ELISA: human plasma in PBS on plates coated with an antibody to the defining protein, overnight 4 °C, 3 PBS washes; bound lipoprotein complexes dissociated with Tween diluent and their apoA-I measured on anti-apoA-I plates
[1] = molecular target: T1, alpha-2-macroglobulin (human (endogenous in human plasma)) (UniProt P01023)
T1 sequence: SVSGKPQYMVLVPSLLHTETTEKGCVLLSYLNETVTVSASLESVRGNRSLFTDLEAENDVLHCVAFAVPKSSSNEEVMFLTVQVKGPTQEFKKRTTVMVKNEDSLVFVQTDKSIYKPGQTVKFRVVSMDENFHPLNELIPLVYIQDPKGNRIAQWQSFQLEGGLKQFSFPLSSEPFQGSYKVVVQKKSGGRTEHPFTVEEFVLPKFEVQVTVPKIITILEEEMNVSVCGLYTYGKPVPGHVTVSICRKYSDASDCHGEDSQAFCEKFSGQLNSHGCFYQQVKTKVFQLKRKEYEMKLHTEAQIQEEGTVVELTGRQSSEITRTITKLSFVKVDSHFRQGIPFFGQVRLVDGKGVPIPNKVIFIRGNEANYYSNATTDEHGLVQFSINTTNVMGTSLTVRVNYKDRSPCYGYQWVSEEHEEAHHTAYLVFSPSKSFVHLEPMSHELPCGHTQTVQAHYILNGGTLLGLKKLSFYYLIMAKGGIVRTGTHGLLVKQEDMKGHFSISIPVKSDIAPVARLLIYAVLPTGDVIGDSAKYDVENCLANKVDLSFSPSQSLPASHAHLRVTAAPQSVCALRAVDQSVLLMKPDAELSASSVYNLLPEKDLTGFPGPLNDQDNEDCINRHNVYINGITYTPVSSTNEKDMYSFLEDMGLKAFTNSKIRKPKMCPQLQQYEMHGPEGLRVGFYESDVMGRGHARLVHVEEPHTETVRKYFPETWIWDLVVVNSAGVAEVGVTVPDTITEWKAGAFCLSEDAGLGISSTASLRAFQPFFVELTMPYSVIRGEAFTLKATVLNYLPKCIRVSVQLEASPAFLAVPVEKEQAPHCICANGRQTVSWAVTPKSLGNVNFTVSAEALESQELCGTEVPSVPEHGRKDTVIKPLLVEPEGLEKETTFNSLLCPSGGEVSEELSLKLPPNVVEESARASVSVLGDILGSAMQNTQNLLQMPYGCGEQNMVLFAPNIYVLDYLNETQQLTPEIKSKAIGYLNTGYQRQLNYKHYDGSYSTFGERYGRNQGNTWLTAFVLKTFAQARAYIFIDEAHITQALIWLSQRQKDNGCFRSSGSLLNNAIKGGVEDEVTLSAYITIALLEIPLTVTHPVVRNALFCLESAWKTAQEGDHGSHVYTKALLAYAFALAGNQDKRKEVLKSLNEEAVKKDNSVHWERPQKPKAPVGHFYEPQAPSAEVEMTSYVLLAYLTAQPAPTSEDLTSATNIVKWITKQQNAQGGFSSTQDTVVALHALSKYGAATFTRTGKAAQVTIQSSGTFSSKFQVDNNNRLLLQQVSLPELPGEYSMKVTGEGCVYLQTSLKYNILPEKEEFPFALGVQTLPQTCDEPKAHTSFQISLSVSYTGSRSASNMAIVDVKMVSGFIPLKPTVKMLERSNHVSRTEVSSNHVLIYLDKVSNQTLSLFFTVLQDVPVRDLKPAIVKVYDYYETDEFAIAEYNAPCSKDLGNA

The chains behind the UniProt entries cited, without tags or fusion partners. Where a name states a change or a piece, a line headed by the entry shows the natural chain unless it says otherwise. Residues count along the entry.
UniProt P02656, residues 21-99: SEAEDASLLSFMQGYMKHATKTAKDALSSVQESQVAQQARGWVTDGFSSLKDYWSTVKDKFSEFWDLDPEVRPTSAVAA
UniProt P02649, residues 19-317: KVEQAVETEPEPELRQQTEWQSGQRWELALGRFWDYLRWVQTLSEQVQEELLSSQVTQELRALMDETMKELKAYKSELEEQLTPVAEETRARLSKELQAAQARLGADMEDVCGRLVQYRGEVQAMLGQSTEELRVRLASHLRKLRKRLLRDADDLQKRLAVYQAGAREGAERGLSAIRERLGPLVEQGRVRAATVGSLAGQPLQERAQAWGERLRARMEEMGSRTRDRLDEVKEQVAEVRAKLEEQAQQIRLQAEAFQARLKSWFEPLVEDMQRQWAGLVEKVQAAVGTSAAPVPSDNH
UniProt P02647: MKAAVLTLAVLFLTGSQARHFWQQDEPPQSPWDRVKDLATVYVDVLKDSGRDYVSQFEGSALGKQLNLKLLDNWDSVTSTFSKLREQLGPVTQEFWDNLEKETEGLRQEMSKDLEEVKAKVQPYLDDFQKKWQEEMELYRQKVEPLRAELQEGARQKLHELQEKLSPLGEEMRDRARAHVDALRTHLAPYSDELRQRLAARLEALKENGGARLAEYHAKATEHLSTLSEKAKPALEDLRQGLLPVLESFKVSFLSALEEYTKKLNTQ

[2] = molecular target: T2, apolipoprotein C-I (human (endogenous in human serum and plasma)) (UniProt P02654)
T2 sequence: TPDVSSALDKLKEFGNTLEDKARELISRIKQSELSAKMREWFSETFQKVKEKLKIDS

[3] = molecular target: apolipoprotein C-III (human (endogenous in human serum and plasma)) (UniProt P02656)
[4] = molecular target: apolipoprotein E (human (endogenous in human serum and plasma)) (UniProt P02649)

Measured: binding

apolipoprotein A-I (from UniProt P02647)
binds: [1] | [2] | [3] | [4]

From article PMC10648649
